Strings that start with PEPTIDE1 are HELM notation: dots part the residues, brackets hold end groups and non-standard residues.

One series is described as follows: general procedure: solution-phase peptide synthesis; N,N'-dicyclohexylcarbodiimide / hydroxybenzotriazole. As to conditions: coupling step.
In turn, “PEPTIDE1{[Boc].[Phe(CH2SO)Phe].[Sta].A.[Sta].[NHBzl]}$$$$V2.0” yielded a step yield of 89%.

Turning to BOC-PHE[CH=CH]GLY-CYSTA-LEU-NHCH2 Ph, the step yield stood at 73.3%.

“N-[2-hydroxy-4-[[3-methyl-1-[[(phenylmethyl)amino]carbonyl]butyl]amino]-1- (2-methylpropyl)-4-oxobutyl]-δ-[(3-methyl-1-oxobutyl)amino]benzenehexanamide”: the step yield is listed as 60%.

For “10,18-dihydroxy-14-methyl-9,17-bis(2-methylpropyl)-1,4,7,12,15-pentaoxo-1- phenyl-N, 3-bis(phenylmethyl)-2,8,13,16-tetraazaeicosan-20-amine”, the step yield is recorded as 73%.

For the substance “PEPTIDE1{[Boc].[Phe(CH2SO)Phe].[Sta].L.[NHBzl]}$$$$V2.0”, the step yield turned out to be 61.6%.

The substance “8-hydroxy-4,9-bis(2-methylpropyl)-3,6,11,14-tetraoxo-1-phenyl-15(phenylmethyl)-2,5,10,-16-tetraazaheptadecan-17-oic acid-1,1-dimethylethyl ester” had a step yield of 43%.

As for BOC-PHE[CH=CH]GLY-PHSTA-LEU-NHCH2 Ph, the step yield is on record as 74%.

For the substance “BOC-PHE[CH2 NZ]HIS(TRT)-PHSTA-LEU-NHCH2 Ph”, the step yield is recorded as 66.4%.

The series is the same for the next values; noted with them: late stage modification step.
Substance BOC-PHE[CH2 NZ]HIS-PHSTA-LEU-NHCH2 Ph yielded a step yield of 84.38%.

Consider BOC-PHE[CH2 NH]HIS-PHSTA-LEU-NHCH2 Ph, for which the step yield was 100%.

“[1-[3-[2-[[1-(cyclohexylmethyl)-2-hydroxy-4-[[3-methyl-1-[[(phenylmethyl)am ino]carbonyl]butyl]-amino]-4-oxobutyl]amino]-2-oxoethyl]oxiranyl]-2-phenylethyl]carbamic acid, 1,1-dimethylethyl ester” displayed a step yield of 63.04%.

(Values after US4743585A (Warner-Lambert Company, priority 1986, dated 1988).)
